Measurements from publication doi:10.1101/2021.05.12.443820.
These are yes or no findings as the source states them, for the method shown. In cells and extracts the contact can be indirect. Binding calls can cover weak binding; strength is not graded here.

Chains of the proteins cited; added tags and fusions are not shown.
UniProt P35580: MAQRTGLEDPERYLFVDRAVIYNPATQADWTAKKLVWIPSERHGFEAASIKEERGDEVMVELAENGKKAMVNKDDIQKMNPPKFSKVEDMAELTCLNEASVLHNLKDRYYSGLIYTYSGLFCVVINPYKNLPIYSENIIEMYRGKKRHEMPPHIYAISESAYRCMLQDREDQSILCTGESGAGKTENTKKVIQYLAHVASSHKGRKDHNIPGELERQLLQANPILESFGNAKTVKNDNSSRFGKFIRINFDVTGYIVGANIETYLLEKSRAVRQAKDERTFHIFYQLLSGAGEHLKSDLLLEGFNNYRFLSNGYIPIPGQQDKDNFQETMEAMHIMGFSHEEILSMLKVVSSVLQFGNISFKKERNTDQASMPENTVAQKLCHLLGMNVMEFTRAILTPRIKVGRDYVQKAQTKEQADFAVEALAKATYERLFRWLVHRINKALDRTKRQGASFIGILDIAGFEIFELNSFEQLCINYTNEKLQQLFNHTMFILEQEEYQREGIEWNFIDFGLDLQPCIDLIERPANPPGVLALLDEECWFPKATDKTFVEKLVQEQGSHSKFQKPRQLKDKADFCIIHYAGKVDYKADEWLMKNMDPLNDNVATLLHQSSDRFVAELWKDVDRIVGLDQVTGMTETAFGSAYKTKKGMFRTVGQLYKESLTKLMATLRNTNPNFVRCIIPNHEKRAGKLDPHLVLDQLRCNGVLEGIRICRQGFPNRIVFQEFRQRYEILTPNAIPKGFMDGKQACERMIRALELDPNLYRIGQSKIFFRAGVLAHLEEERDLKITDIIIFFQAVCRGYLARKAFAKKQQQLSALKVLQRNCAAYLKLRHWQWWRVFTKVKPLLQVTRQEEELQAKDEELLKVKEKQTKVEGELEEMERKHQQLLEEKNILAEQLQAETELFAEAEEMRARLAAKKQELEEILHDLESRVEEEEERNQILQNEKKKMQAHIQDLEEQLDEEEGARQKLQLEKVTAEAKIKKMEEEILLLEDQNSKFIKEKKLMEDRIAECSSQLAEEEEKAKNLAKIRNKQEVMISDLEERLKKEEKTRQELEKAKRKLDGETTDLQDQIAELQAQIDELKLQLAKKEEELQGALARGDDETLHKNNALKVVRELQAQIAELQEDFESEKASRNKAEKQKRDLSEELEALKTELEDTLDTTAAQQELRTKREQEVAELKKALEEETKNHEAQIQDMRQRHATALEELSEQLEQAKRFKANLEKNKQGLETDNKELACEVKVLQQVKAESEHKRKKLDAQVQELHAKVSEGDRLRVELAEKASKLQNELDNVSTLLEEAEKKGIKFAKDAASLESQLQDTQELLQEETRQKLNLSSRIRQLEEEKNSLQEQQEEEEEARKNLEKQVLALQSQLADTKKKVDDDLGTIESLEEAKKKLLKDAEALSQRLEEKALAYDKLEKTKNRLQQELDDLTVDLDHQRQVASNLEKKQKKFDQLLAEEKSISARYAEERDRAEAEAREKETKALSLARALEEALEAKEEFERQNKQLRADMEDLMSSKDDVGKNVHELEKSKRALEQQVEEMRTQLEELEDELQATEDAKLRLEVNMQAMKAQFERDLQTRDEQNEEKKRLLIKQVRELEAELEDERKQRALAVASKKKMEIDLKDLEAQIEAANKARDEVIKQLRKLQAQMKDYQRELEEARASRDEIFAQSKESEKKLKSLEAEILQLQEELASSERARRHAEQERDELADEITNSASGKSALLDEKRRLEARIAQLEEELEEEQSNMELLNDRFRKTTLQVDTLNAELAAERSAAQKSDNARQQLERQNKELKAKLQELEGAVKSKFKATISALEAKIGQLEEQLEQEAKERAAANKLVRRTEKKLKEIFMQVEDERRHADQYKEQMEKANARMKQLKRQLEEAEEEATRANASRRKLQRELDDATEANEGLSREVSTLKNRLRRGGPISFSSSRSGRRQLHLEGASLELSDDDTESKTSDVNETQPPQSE
UniProt P35579: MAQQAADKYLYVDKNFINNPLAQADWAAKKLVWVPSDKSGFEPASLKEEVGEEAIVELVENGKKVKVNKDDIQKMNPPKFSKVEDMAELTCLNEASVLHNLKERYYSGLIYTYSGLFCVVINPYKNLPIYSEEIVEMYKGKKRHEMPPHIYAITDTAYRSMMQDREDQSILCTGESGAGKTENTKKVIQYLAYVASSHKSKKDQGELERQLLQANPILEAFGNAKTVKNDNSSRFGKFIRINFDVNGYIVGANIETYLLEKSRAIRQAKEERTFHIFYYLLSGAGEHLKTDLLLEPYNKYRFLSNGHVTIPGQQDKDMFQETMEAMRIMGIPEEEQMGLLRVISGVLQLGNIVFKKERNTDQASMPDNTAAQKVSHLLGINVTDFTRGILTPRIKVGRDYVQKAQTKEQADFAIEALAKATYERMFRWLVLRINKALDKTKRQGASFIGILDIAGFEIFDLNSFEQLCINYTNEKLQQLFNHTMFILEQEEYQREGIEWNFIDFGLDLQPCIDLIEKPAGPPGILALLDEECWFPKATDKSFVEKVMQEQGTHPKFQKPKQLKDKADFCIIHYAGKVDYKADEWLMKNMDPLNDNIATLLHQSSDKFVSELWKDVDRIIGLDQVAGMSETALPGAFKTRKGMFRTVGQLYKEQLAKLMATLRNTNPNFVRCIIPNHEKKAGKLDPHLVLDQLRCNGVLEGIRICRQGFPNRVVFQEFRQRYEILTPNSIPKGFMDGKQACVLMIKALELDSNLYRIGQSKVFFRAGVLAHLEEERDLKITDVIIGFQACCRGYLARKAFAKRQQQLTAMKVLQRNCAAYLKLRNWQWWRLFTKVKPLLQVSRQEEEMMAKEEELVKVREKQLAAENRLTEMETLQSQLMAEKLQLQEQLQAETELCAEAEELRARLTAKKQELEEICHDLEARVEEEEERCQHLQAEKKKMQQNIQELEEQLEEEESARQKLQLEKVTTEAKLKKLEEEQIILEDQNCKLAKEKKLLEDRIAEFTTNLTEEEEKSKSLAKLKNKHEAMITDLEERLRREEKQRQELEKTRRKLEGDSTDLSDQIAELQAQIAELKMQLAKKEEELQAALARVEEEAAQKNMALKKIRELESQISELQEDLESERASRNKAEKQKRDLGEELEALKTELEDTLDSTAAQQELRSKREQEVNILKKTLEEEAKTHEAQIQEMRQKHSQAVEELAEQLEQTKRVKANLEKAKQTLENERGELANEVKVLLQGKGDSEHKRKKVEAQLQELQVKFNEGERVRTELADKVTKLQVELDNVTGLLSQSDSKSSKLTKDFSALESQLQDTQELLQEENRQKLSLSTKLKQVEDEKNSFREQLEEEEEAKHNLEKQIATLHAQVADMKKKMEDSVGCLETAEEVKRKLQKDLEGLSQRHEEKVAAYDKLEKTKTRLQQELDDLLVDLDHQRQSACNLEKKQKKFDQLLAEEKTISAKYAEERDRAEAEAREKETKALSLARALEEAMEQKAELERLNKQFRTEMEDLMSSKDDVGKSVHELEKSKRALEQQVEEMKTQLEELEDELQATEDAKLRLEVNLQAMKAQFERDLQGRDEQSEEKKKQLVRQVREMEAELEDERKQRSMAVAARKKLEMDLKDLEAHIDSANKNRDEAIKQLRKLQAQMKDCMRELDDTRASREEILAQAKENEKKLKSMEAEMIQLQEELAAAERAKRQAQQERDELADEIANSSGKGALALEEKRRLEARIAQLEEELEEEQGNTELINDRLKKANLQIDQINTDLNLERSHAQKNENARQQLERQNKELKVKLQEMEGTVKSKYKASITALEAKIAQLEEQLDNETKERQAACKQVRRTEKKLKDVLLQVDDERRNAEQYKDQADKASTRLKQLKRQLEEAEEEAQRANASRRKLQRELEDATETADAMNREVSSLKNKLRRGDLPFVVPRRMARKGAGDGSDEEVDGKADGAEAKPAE

Biological target: Flag-Lmo7 (Lim domain only protein 7), full-length (Xenopus laevis) (UniProt B5DE43)
Test: co-IP

## Non-muscle myosin II heavy chain B (NMIIB), endogenous (from UniProt P35580 1-1976)
  binding: binds

## Non-muscle myosin II heavy chain A (NMIIA), endogenous (from UniProt P35579 1-1960)
  binding: binds
